This is an account of results in article PMC7247550.

Chains of the proteins cited; added tags and fusions are not shown.
UniProt P15531: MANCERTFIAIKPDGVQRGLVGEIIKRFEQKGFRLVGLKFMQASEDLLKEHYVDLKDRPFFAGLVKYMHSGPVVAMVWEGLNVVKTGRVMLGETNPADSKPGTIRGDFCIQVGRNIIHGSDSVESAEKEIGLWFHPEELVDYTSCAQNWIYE
UniProt P06733: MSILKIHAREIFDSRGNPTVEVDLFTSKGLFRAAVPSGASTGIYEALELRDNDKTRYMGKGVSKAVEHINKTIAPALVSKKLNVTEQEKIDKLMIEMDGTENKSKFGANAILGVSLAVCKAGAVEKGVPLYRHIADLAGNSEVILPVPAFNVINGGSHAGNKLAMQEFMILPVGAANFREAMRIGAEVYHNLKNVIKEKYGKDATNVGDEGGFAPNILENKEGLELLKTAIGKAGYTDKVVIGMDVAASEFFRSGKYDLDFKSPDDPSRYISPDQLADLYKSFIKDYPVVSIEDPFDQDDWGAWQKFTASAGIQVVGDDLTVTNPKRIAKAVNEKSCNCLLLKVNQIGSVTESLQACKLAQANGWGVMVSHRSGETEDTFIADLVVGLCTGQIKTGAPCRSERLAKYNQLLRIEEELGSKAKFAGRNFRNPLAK
UniProt P04406: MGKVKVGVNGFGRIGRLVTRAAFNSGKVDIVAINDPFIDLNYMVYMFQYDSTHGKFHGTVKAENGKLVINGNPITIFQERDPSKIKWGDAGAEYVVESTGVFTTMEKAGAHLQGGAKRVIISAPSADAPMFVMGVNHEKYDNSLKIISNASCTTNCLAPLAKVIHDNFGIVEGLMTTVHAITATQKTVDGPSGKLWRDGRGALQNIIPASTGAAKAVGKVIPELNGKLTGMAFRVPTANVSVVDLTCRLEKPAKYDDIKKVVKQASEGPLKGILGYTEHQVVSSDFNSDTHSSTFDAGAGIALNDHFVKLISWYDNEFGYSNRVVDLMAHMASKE
UniProt P14618: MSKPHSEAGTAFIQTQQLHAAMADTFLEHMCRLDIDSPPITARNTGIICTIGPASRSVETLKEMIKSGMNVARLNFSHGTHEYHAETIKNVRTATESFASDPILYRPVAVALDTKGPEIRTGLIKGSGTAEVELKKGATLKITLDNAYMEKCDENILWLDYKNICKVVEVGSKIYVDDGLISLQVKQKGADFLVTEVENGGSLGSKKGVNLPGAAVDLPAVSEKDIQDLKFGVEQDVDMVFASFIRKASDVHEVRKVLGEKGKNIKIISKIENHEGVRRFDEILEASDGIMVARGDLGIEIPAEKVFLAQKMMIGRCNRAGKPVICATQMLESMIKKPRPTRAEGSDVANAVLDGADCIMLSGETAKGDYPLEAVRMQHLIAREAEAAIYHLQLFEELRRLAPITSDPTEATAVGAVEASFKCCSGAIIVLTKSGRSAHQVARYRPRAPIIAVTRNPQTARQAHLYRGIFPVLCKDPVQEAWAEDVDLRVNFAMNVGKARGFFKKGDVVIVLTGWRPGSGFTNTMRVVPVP

No constants are given. Whether binding was seen depends on the method and setting. In cells and extracts the contact can be indirect. A yes stands for co-enrichment or nearness to the bait. Other partners may have been found.

For the assay, the target named is NME1 (human (endogenous in SK-N-BE(2) and SK-N-AS)) (UniProt P15531). In words: affinity purification with mass spectrometry; endogenous NME1 immunoprecipitated with mouse monoclonal nm23-H1 sc-465 antibody and protein A agarose from SK-N-BE(2) and SK-N-AS lysates (20 mM Tris HCl pH 8, 100 mM NaCl, 2 mM EDTA, 1% NP40, Benzonase), 4 °C; eluted proteins digested with trypsin, LC-MS/MS.
As to ENO1 (from UniProt P06733 1-434), the binding entry is given as “binds”.
Turning to GAPDH (from UniProt P04406 1-335), the binding result is recorded as “binds”.
Under PKM (from UniProt P14618 1-531) stands “binds”.
